# From PubChem BioAssay AID2685 (National Center for Advancing Translational Sciences (NCATS), 2010)
# The other results are listed elsewhere or left out. The main result of the screen is listed elsewhere. These columns were measured beside it and carry no call. The list favours compounds with an active or inconclusive main result. Potencies come from curve fits of mixed quality, noted in brackets.
# Experiment: qHTS Assay for Lipid Storage Modulators in Drosophila S3 Cells;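 for cell number change: cells counted by Cell Tracker Red CMTPX staining in the red channel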
# Conditions: BODIPY lipid droplet fluorescence, 18-24 h; for cell number change: measured here: cell count max response, cells fed with added oleic acid
# Outline: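 Drosophila S3 cells got compounds at several concentrations plus oleic acid (400 uM solution). Laser-scanning cytometry with 488 nm excitation read lipid droplets at 500-530 nm and cells at 575-640 nm. Percent activity was relative to 20 uM Triacsin C.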
# [1] = measured here: cell number channel AC50, cells fed with added oleic acid
# [2] = measured here: lipid fluorescence (Fed channel) AC50, cells fed with added oleic acid
structure (smiles),measurement,setting,value
C=CCNC(=S)NNc1nc2c(c(=O)[nH]1)C1(CCCCC1)Cc1ccccc1-2,cell number change,,-45.5%
same,AC50,[1],"14.6 µM [falling, single point]"
Cc1[nH]c2ccccc2c1N=Nc1cc(C(=O)O)cc(C(=O)O)c1,cell number change,,10.5%
same,AC50,[1],"0.517 µM [falling, full curve]"
COc1ccc(CN(C)C(=O)c2cccc(NS(=O)(=O)c3ccccc3)c2)cc1F,cell number change,,-32.4%
same,AC50,[1],"29.1 µM [falling, single point]"
same,AC50,[2],"6.51 µM [falling, single point]"
COc1ccc(CNCC(O)(c2ccccc2)c2ccc(Cl)cc2)cc1 (stereo not drawn),cell number change,,-135%
same,AC50,[1],"18.4 µM [falling, single point]"
same,AC50,[2],"6.51 µM [rising, partial curve, poor fit]"
CCCN(CC(=O)Nc1ccccc1C)C(=O)C1CC(=O)N(c2ccc(CC)cc2)C1 (stereo not drawn),cell number change,,4.51%
same,AC50,[2],"23.1 µM [falling, partial curve, poor fit]"
C/C(=N/NC(=O)c1ccoc1C)c1cccc(NC(=O)C2CC2)c1,cell number change,,-5.39%
same,AC50,[2],"0.164 µM [rising, full curve, poor fit]"
Cc1ccc(NNC(=S)Nc2ccc(C(C)C)cc2)c(C)c1,cell number change,,-12.2%
Nc1nc(=S)c2ncn(C3OC(CO)C(O)C3O)c2[nH]1 (stereo not drawn),cell number change,,-5.56%
same,AC50,[2],"29.1 µM [rising, single point]"
Cc1cccc(OC(C)C(=O)Nc2ccccc2C(=O)N2CCCCC2)c1 (stereo not drawn),cell number change,,-2.44%
same,AC50,[2],"6.51 µM [rising, single point]"
Cc1nnc(SCC2=C(C(=O)O)N3C(=O)C(NC(=O)COc4ccccc4)C3SC2)s1 (stereo not drawn),cell number change,,11%
same,AC50,[2],"0.291 µM [rising, full curve, poor fit]"
CN(/N=C/c1cccnc1)c1cnc2ccccc2n1,cell number change,,-66.9%
CCOc1ccc(Oc2ccc(S(=O)(=O)N3CCOCC3)cc2NC(=O)C2=COCCO2)cc1,AC50,[1],"3.66 µM [rising, single point]"
O=C(COC(=O)Cc1ccccc1F)Nc1ccc(F)cc1F,cell number change,,-17%
same,AC50,[2],"22.4 µM [falling, single point]"
O=C(Nc1nccs1)c1cc(-c2ccccc2)nc2ccccc12,cell number change,,-4.15%
same,AC50,[2],"1.64 µM [rising, partial curve]"
O=C(Cc1ccccc1)NN1CCCCC1,cell number change,,-1.8%
same,AC50,[2],"29.1 µM [rising, partial curve]"
Cc1cc(N2CCCC2)nc2ccccc12,cell number change,,-41.5%
same,AC50,[1],"11.6 µM [falling, partial curve, poor fit]"
same,AC50,[2],"10.3 µM [falling, partial curve]"
Cn1cccc1-c1nc2ccccc2n1C,cell number change,,-16.7%
same,AC50,[2],"3.66 µM [falling, full curve, poor fit]"
CCOc1ccccc1C1c2[nH]c3ccccc3c2C[C@H]2C(=O)N(C3CCN(Cc4ccccc4)CC3)CC(=O)N12 (stereo partly drawn),cell number change,,137%
same,AC50,[2],"0.651 µM [rising, single point]"
COc1cccc(CN2CCN(C(=O)CC(C)C)CC2)c1,cell number change,,13%
CCn1cc(CN2CCC(C(=O)Nc3ccc(Oc4ccccc4F)cc3)CC2)c(C)n1,cell number change,,2.09%
O=c1c2cc(Cl)ccc2oc2nc3n(c(=O)c12)CCCS3,AC50,[1],"1.3 µM [rising, full curve]"
same,AC50,[2],"0.82 µM [rising, full curve]"
CC(C)(C)c1ccc(-c2nn(CCC#N)cc2/C=N/O)cc1,cell number change,,17.9%
same,AC50,[2],"0.00517 µM [rising, full curve, poor fit]"
O=C(Nc1ccc(Cl)cc1)OCc1cn(-c2ccccc2)nn1,cell number change,,107%
same,AC50,[1],"25.9 µM [rising, single point]"
same,AC50,[2],"18.4 µM [rising, single point]"
CCOC(=O)C1CCCN(C(=O)c2cccc(NC(=O)C(CC)CC)c2)C1 (stereo not drawn),cell number change,,120%
COc1ccccc1-n1nnnc1SCc1cc2c(cc1Br)OCO2,cell number change,,-23.1%
CCc1ccc(NC(=O)c2ccc(S(=O)(=O)NCc3cccnc3)cc2)cc1,cell number change,,0.952%
same,AC50,[1],"0.00461 µM [rising, full curve, poor fit]"
CN1CCN(C(=O)/C=C\C(=O)O)CC1,cell number change,,-62.7%
same,AC50,[1],"18.4 µM [falling, single point]"
same,AC50,[2],"5.17 µM [falling, single point]"
CCC(CC)C(=O)Nc1cccc(/C(C)=N\NC(=O)c2ccc(C)s2)c1,AC50,[1],"0.517 µM [rising, full curve, poor fit]"
COc1ccc([C@]2(C(C)C)ON(c3ccccc3C(F)(F)F)C2=O)cc1,cell number change,,-41%
same,AC50,[1],"7.31 µM [falling, single point]"
CCOc1ncccc1C(=O)Nc1ccc(Cl)c(S(=O)(=O)N2CCCC2)c1,cell number change,,3.65%
Cc1cccc(C(C(=O)NC2CCCCC2)N(Cc2cccnc2)C(=O)c2csnn2)c1 (stereo not drawn),cell number change,,18.1%
C[C@@H](C(=O)N[C@H](C(=O)O)c1ccccc1)n1nnc2ccccc2c1=O,cell number change,,33.5%
same,AC50,[1],"2.31 µM [rising, full curve]"
same,AC50,[2],"2.91 µM [rising, partial curve, poor fit]"
CCOC(=O)N1CCN(C(=O)c2ccc(CNS(=O)(=O)c3ccc(NC(C)=O)cc3)cc2)CC1,AC50,[2],"0.116 µM [falling, single point]"
CCCCCCN1N=C(C)C(C(=O)c2ccc(Cl)cc2)C1=O (stereo not drawn),cell number change,,-1.81%
CC(C)OCCCn1c(SCC(=O)N2CCCC2=O)nc2ccccc2c1=O,cell number change,,52.4%
same,AC50,[1],"4.61 µM [rising, full curve]"
same,AC50,[2],"4.11 µM [rising, partial curve]"
O=[N+]([O-])c1ccccc1S(=O)(=O)Nc1cccc(-c2ccc(N3CCCC3)nn2)c1,cell number change,,33.9%
same,AC50,[1],"9.2 µM [rising, partial curve, poor fit]"
same,AC50,[2],"11.6 µM [rising, partial curve, poor fit]"
CC(C)C[C@H](NC(=O)c1[nH]cnc1C(=O)N[C@@H](C)c1ccccc1)C(=O)OC(C)(C)C,cell number change,,-15.6%
same,AC50,[2],"10.3 µM [falling, partial curve]"
COc1cc(SC#N)ccc1N=Cc1c(C)[nH]n(-c2ccc(Cl)cc2)c1=O,cell number change,,-50.9%
same,AC50,[1],"7.31 µM [falling, partial curve]"
same,AC50,[2],"13 µM [falling, partial curve]"
COc1ccc(CCNC(=O)c2cc(C3CC3)nc3c2cnn3C(C)C)cc1,cell number change,,-11%
same,AC50,[2],"18.4 µM [falling, single point]"
C/C(CCC1CC(C)OC1=O)=N\NC(N)=S (stereo not drawn),cell number change,,14.2%
same,AC50,[2],"4.61 µM [rising, single point]"
CCc1ccccc1NC(=O)CN(C)C(=O)Cn1cc(C(F)(F)F)cc(Cl)c1=O,cell number change,,46.2%
same,AC50,[1],"18.4 µM [rising, single point]"
same,AC50,[2],"20.6 µM [rising, single point]"
COc1ccc(N=CC2=C(O)CC(c3ccccc3)CC2=O)c(OC)c1 (stereo not drawn),cell number change,,3.93%
same,AC50,[1],"6.51 µM [falling, partial curve, poor fit]"
same,AC50,[2],"29.1 µM [rising, single point]"
CCOc1ccccc1OCCCC(=O)Nc1cccc(-n2cnnn2)c1C,cell number change,,0.245%
same,AC50,[1],"0.116 µM [falling, full curve, poor fit]"
same,AC50,[2],"9.2 µM [falling, partial curve, poor fit]"
Cc1onc(-c2ccccc2Cl)c1C(=O)Nc1nnc(-c2ccc(F)cc2)s1,cell number change,,5.74%
Cc1ccc(NC(=O)c2ccc(NS(=O)(=O)/C=C/c3ccccc3)cc2)nc1,cell number change,,20.5%
Cc1cccc(-n2c(N)cc(=O)nc2SCC(=O)Nc2cc(C)on2)c1,cell number change,,-15.1%
same,AC50,[2],"0.116 µM [falling, full curve, poor fit]"
COc1ccc(O)c(-c2[nH]ncc2C(=O)c2cccc(C)c2)c1,cell number change,,22.8%
same,AC50,[2],"20.6 µM [rising, single point]"
COc1ccc(NC(=O)CSc2ncn(-c3ccccc3)n2)cc1Cl,AC50,[1],"4.61 µM [rising, partial curve, poor fit]"
CC(=O)Nc1ccccc1OCC(=O)NCC(F)(F)F,cell number change,,58.5%
same,AC50,[1],"16.4 µM [rising, partial curve, poor fit]"
Cc1ccccc1Cn1c(=O)n(CCCC(=O)NCc2ccco2)c(=O)c2ccccc21,cell number change,,-25%
O=C(OCCN1CCN(c2ncc(C(F)(F)F)cc2Cl)CC1)c1ccc(F)cc1,cell number change,,-35.2%
same,AC50,[1],"20.6 µM [falling, partial curve, poor fit]"
CCNC(=O)CC1C(=O)N(c2ccc(OC)cc2)C(=O)N1Cc1ccc(OC)cc1 (stereo not drawn),cell number change,,-31.9%
same,AC50,[1],"29.1 µM [falling, single point]"
N#CCCN1CCN(S(=O)(=O)c2cc(Cl)ccc2Cl)CC1,AC50,[1],"5.8 µM [falling, single point]"
COc1cc(OC)cc(C(=O)Nc2cc(-c3cn4cccnc4n3)ccc2C)c1,cell number change,,1.64%
Cn1c(CNC(=O)c2ccccc2F)cc2ccccc21,cell number change,,-3.31%
same,AC50,[2],"6.51 µM [rising, single point]"
CN(C)S(=O)(=O)N1CCC(Oc2cccc(C(=O)NCCC3=CCCCC3)c2)CC1,cell number change,,19.8%
CCNC(=S)Nc1ccc2ncoc2c1,AC50,[1],"0.651 µM [falling, full curve]"
same,AC50,[2],"1.03 µM [falling, full curve]"
COc1ccc(CNC(=O)NCCc2c[nH]c3ccccc23)cc1,cell number change,,9.91%
same,AC50,[1],"0.731 µM [rising, single point]"
O=C(Cn1nc(C(=O)O)c2ccccc2c1=O)Nc1ccccc1C(F)(F)F,cell number change,,52.1%
same,AC50,[1],"1.84 µM [rising, partial curve, poor fit]"
O=C(NC(=S)NCc1ccc2c(c1)OCO2)c1ccccc1,cell number change,,15.6%
same,AC50,[2],"2.59 µM [rising, partial curve]"

# An excerpt of these results, as tab-separated lines:
structure (smiles)	measurement	setting	value
Cn1c(CNC(=O)c2ccccc2F)cc2ccccc21	AC50	[2]	6.51 µM [rising, single point]
CN(C)S(=O)(=O)N1CCC(Oc2cccc(C(=O)NCCC3=CCCCC3)c2)CC1	cell number change		19.8%
CCNC(=S)Nc1ccc2ncoc2c1	AC50	[1]	0.651 µM [falling, full curve]
same	AC50	[2]	1.03 µM [falling, full curve]
COc1ccc(CNC(=O)NCCc2c[nH]c3ccccc23)cc1	cell number change		9.91%
